Laboratory results from patent US5332531A, “Extracting metal ions with diphosphonic acid, or derivative thereof” (priority 1992, dated 1994).

Key:
[1] = Eu(III) complexation / stripping factor and equilibria by solvent extraction distribution ratio (HDEHP)
[2] = Distribution coefficient, TRUEX process solvent / nitric acid, americium; conditions: column B, 25° C.
[3] = Removal of uranium from groundwater, supported liquid membrane-based process; conditions: initial 10^-4 M uranium, pH 2, 0.25M VDPA strip solution
Text: Aqueous solutions of the thermodynamically-unstable complexing agents of the present invention can be used in commercially available supported liquid membrane-based modules to strip metal ion contaminants from aqueous solution. Other devices using a porous membrane separating means can also be used. In general the aqueous solution containing uranium is in contact with one side of the porous membrane and the aqueous solution of the complexing agent is in contact with the other. A known organic extractant is permeated into the pores of the membrane to carry the metal ions from one side to the other. The aqueous solution of the complexing agent strips metal ions from the organic extractant in the pores, driving the extraction "reaction" toward removal of metal ions from the solution to be decontaminated.
Aqueous solutions of the thermodynamically-unstable complexing agent described in this application are useful as stripping agents in a supported liquid membrane-based process for removal of uranium contaminants from groundwater. In this process, groundwater containing 10^-4 M uranium is acidified to pH of 2 by addition of small amounts of sulfuric acid and passed through porous polypropylene hollow fibers in a supported liquid membrane module. The pores of the membrane are filled with 0.1M bis(2,4,4-trimethylpentyl)phosphinic acid in n-dodecane. […]

[4] = Distribution coefficient, TRUEX process solvent / nitric acid, uranium; conditions: column B, 25° C.
[5] = Distribution coefficient, TRUEX process solvent / nitric acid, plutonium; conditions: column B, 25° C.
[6] = 2.0M NaNO3/HNO3, [H+] 0.1M to 0.02M

For `CC(O)(P(=O)(O)O)P(=O)(O)O` [HEDPA, 1-hydroxyethane-1,1-diphosphonic acid], the “log β 121 (EuH2 L^1+)” value [1, 6] was 4.58, the “log β 131 (EuH3 L^2+)” value [1, 6] was 6.43 and the “log β 152 (EuH5 L2)” value [1, 6] was 9.76. The “log β 162 (EuH6 L2^1+)” value [1, 6] was 11.47, the “log β 183 (EuH8 L3^1-)” value [1, 6] was 14.56 and the “stoichiometric ratio of metal to complexing agent” value ([1]; Eu complexes) was 1:3 complexes.

With `C=C(P(=O)(O)O)P(=O)(O)O` [VDPA, vinylidenediphosphonic acid] the “log β 121 (EuH2 L^1+)” value [1, 6] was 3.70, the “log β 131 (EuH3 L^2+)” value [1, 6] was 5.71 and the “log β 142 (EuH4 L2^1-)” value [1, 6] was 6.33. The “log β 162 (EuH6 L2^1+)” value [1, 6] was 9.96, the “Distribution Coefficient (organic/aqueous), Americium B” value ([2]; HNO3 1 M) was 3.5 and the “Distribution Coefficient (organic/aqueous), Americium B” value ([2]; HNO3 1 × 10^-1 M) was 8 × 10^-5. The “Distribution Coefficient (organic/aqueous), Americium B” value ([2]; HNO3 5 M) was 9.0, the “Distribution Coefficient (organic/aqueous), Americium B” value ([2]; HNO3 5 × 10^-1 M) was 6.8 × 10^-1 and the “uranium in the strip solution” value [3] was 10^-1 M. For the same molecule, the “uranium level in the groundwater after process” value [3] was 10^-8 M, the “Distribution Coefficient (organic/aqueous), Uranium B” value ([4]; HNO3 1 M) was 1.4 × 10^-1 and the “Distribution Coefficient (organic/aqueous), Uranium B” value ([4]; HNO3 5 M) was 7. The “Distribution Coefficient (organic/aqueous), Uranium B” value ([4]; HNO3 5 × 10^-1 M) was 2.5 × 10^-2, the “Distribution Coefficient (organic/aqueous), Plutonium B” value ([5]; HNO3 1 M) was 4.0 × 10^-3 and the “Distribution Coefficient (organic/aqueous), Plutonium B” value ([5]; HNO3 1 × 10^-1 M) was 1.2 × 10^-4. The “Distribution Coefficient (organic/aqueous), Plutonium B” value ([5]; HNO3 5 M) was 4.0 × 10^-1 and the “Distribution Coefficient (organic/aqueous), Plutonium B” value ([5]; HNO3 5 × 10^-1 M) was 1.1 × 10^-3.
